PubChem BioAssay AID1159578, Peter MacCallum Cancer Centre – 2015
Screen: 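Genome-wide hunt for genes controlling movement of lymphatic endothelial cells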 (primary screen). Cells: human lymphatic endothelial cells. Reagent: siRNA pool against human genes, 40 nM. Duration: 48 h after transfection. Detection: 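Cells stained with dye and imaged after a scratch; covered wound area and nuclei counted, duplicates averaged, migration set against mock wells and turned into a robust z-score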. Direction: migration robust z-score: higher = faster migration into the scratch; nuclei per well: higher = more cells in the well. Rule for the call: 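Migration changed when robust z exceeds 2 or falls below -2 and mean nuclei number is at least 3300; otherwise not called changed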. Meaning of the calls: active = migration changed; inactive = no migration change, or too few cells.
Here is one part, drawn at random, of about 18,000 reagents tested. About 1,030 of them (5.7%) count as active. 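Inactive calls also include pools with fewer than 3300 nuclei, whose migration was not assessed.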 Raw values vary from plate to plate and are shown uncorrected. Further read-outs or replicates are left out here.

What did the screen give for KNSTRN (kinetochore localized astrin (SPAG5) binding protein)?
migration robust z-score: 0.7; migration class with cell-count check: migration z between -2 and 2; enough cells; nuclei per well, duplicate mean: 6574; outcome: inactive

With ADRB3 (adrenoceptor beta 3), what does the deposit list?
migration robust z-score: -0.36; migration class with cell-count check: migration z between -2 and 2; enough cells; nuclei per well, duplicate mean: 5916; outcome: inactive

With CRACR2A (calcium release activated channel regulator 2A), what was measured?
migration robust z-score: 2.21; migration class with cell-count check: migration z above 2; enough cells; nuclei per well, duplicate mean: 6503; outcome: active

For LPAR5 (lysophosphatidic acid receptor 5), what was measured?
migration robust z-score: -1.4; migration class with cell-count check: migration z between -2 and 2; enough cells; nuclei per well, duplicate mean: 4962; outcome: inactive

How did the screen score CDH20 (cadherin 20)?
migration robust z-score: 1.1; migration class with cell-count check: migration z between -2 and 2; enough cells; nuclei per well, duplicate mean: 6130; outcome: inactive

Which result is listed for PEDS1 (plasmanylethanolamine desaturase 1)?
migration robust z-score: 0.79; migration class with cell-count check: migration z between -2 and 2; enough cells; nuclei per well, duplicate mean: 5748; outcome: inactive

With ALDH1A2 (aldehyde dehydrogenase 1 family member A2), how do the results read?
migration robust z-score: 0.68; migration class with cell-count check: migration z between -2 and 2; enough cells; nuclei per well, duplicate mean: 5608; outcome: inactive

How did the screen score ZBTB48 (zinc finger and BTB domain containing 48)?
migration robust z-score: -0.08; migration class with cell-count check: migration z between -2 and 2; enough cells; nuclei per well, duplicate mean: 5990; outcome: inactive

For TUT1 (terminal uridylyl transferase 1, U6 snRNA-specific), how do the results read?
migration robust z-score: -0.59; migration class with cell-count check: migration z between -2 and 2; enough cells; nuclei per well, duplicate mean: 4810; outcome: inactive

With MAT1A (methionine adenosyltransferase 1A), what does the deposit list?
migration robust z-score: 0.39; migration class with cell-count check: migration z between -2 and 2; enough cells; nuclei per well, duplicate mean: 5484; outcome: inactive

Which result is listed for MYEOV (myeloma overexpressed)?
migration robust z-score: 1.66; migration class with cell-count check: migration z between -2 and 2; enough cells; nuclei per well, duplicate mean: 6088; outcome: inactive

With KCNJ3 (potassium inwardly rectifying channel subfamily J member 3), what was measured?
migration robust z-score: -0.1; migration class with cell-count check: migration z between -2 and 2; enough cells; nuclei per well, duplicate mean: 5385; outcome: inactive

Which result is listed for RASSF5 (Ras association domain family member 5)?
migration robust z-score: -0.99; migration class with cell-count check: migration z between -2 and 2; enough cells; nuclei per well, duplicate mean: 5428; outcome: inactive

For SF3B5 (splicing factor 3b subunit 5), what was measured?
migration robust z-score: -0.57; migration class with cell-count check: migration z between -2 and 2; enough cells; nuclei per well, duplicate mean: 3373; outcome: inactive

A stretch of the results above, as a working copy:
ALDH1A2 (aldehyde dehydrogenase 1 family member A2) | migration robust z-score = 0.68; migration class with cell-count check = migration z between -2 and 2; enough cells; nuclei per well, duplicate mean = 5608; outcome = inactive
ZBTB48 (zinc finger and BTB domain containing 48) | migration robust z-score = -0.08; migration class with cell-count check = migration z between -2 and 2; enough cells; nuclei per well, duplicate mean = 5990; outcome = inactive
